{"sequences": {"note": "Amino acid sequences for entries named in this document (tags omitted).", "UniProt A0A387K3P5": "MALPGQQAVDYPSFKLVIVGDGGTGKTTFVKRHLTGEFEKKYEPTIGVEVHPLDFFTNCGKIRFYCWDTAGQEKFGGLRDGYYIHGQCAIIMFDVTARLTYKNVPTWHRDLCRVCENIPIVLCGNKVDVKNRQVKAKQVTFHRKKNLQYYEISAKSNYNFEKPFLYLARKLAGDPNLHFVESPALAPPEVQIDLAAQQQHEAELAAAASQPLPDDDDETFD"}, "source": "paper PMC6418045", "key": {"[1]": {"target": "T1, NbRanBP1-1a (Nicotiana benthamiana Ran-binding protein 1-1a), bait fusion in pGBKT7 (Nicotiana benthamiana)", "T1 sequence": "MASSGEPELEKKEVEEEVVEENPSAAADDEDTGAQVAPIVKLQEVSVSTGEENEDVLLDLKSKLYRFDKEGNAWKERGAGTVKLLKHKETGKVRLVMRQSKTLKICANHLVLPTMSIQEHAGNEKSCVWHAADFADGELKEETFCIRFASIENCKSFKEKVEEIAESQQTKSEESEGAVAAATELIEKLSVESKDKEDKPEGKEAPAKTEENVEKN", "test": "two-hybrid; … Two-Hybrid System3, yeast strain AH109; NbRanBP1-1a in bait vector pGBKT7, NbRan1a in prey vector pGADT7; growth on SD lacking leucine, tryptophan, histidine and adenine"}, "[2]": {"target": "GFP-NbRan1a (Nicotiana benthamiana)", "test": "co-IP; GFP-NbRan1a or GFP co-expressed with FLAG-NbRanBP1-1a in N. benthamiana leaves by agroinfiltration, harvested 48 h after inoculation; precipitation with anti-GFP antibody by the text (anti-FLAG by the legend), immunoblot with anti-FLAG and anti-GFP"}, "[3]": {"target": "nGFP-NbRan1a (Nicotiana benthamiana)", "test": "split reporter; BiFC with split GFP (nGFP 2-174, cGFP 175-239) in N. benthamiana leaf epidermal cells by agroinfiltration; imaged about 2 days after inoculation"}, "[4]": {"target": "cGFP-NbRan1a (Nicotiana benthamiana)", "test": "split reporter; BiFC with split GFP (nGFP 2-174, cGFP 175-239) in N. benthamiana leaf epidermal cells by agroinfiltration; imaged about 2 days after inoculation"}}, "note": "No constants are given. Whether binding was seen depends on the method and setting. For some of these results: Binding seen in cells or lysates may run through a third protein. Some binding calls cover weakened binding; strength is not graded here. Where a sequence is shown, tags or fusion partners need not be part of it."}
{"molecule": "NbRan1a (Nicotiana benthamiana small GTPase Ran1a), prey fusion in pGADT7 (from UniProt A0A387K3P5 1-221)", "values": [{"measurement": "binding", "setting": "[1]", "value": "binds"}]}
{"molecule": "FLAG-NbRanBP1-1a (protein, UniProt A0A387K1P8 1-216) MASSGEPELEKKEVEEEVVEENPSAAADDEDTGAQVAPIVKLQEVSVSTGEENEDVLLDLKSKLYRFDKEGNAWKERGAGTVKLLKHKETGKVRLVMRQSKTLKICANHLVLPTMSIQEHAGNEKSCVWHAADFADGELKEETFCIRFASIENCKSFKEKVEEIAESQQTKSEESEGAVAAATELIEKLSVESKDKEDKPEGKEAPAKTEENVEKN", "values": [{"measurement": "binding", "setting": "[2]", "value": "binds"}]}
{"molecule": "cGFP-NbRanBP1-1a (protein, UniProt A0A387K1P8 1-216) MASSGEPELEKKEVEEEVVEENPSAAADDEDTGAQVAPIVKLQEVSVSTGEENEDVLLDLKSKLYRFDKEGNAWKERGAGTVKLLKHKETGKVRLVMRQSKTLKICANHLVLPTMSIQEHAGNEKSCVWHAADFADGELKEETFCIRFASIENCKSFKEKVEEIAESQQTKSEESEGAVAAATELIEKLSVESKDKEDKPEGKEAPAKTEENVEKN", "values": [{"measurement": "binding", "setting": "[3]", "value": "binds"}]}
{"molecule": "nGFP-NbRanBP1-1a (protein, UniProt A0A387K1P8 1-216) MASSGEPELEKKEVEEEVVEENPSAAADDEDTGAQVAPIVKLQEVSVSTGEENEDVLLDLKSKLYRFDKEGNAWKERGAGTVKLLKHKETGKVRLVMRQSKTLKICANHLVLPTMSIQEHAGNEKSCVWHAADFADGELKEETFCIRFASIENCKSFKEKVEEIAESQQTKSEESEGAVAAATELIEKLSVESKDKEDKPEGKEAPAKTEENVEKN", "values": [{"measurement": "binding", "setting": "[4]", "value": "binds"}]}
